# Experimental data as given in the supplement of paper PMC11006884.
# Sequences of proteins named here, by UniProt entry; tags and fusion partners are left off. A change or cut given only in a name is not applied to a line headed by its entry.
# UniProt O43837: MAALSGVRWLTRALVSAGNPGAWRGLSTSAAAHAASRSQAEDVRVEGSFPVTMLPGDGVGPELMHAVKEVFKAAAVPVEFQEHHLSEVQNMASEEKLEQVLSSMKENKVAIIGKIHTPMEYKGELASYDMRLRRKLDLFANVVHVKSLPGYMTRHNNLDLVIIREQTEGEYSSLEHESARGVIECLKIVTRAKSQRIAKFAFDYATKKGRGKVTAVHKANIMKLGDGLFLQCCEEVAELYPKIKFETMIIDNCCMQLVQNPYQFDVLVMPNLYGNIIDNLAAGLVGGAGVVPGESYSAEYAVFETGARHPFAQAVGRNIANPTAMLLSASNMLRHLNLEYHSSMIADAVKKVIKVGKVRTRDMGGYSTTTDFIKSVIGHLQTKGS
# UniProt O75521: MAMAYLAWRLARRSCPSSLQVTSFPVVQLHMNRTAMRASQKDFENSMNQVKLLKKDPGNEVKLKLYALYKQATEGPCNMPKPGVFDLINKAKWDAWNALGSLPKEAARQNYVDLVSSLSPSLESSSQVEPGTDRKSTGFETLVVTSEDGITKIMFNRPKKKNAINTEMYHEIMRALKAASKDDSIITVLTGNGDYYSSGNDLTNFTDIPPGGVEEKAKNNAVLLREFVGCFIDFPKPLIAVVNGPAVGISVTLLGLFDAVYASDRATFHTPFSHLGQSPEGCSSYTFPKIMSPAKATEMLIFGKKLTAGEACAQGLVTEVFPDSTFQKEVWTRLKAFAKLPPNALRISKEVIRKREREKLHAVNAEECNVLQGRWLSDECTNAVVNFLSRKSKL
# UniProt O60281: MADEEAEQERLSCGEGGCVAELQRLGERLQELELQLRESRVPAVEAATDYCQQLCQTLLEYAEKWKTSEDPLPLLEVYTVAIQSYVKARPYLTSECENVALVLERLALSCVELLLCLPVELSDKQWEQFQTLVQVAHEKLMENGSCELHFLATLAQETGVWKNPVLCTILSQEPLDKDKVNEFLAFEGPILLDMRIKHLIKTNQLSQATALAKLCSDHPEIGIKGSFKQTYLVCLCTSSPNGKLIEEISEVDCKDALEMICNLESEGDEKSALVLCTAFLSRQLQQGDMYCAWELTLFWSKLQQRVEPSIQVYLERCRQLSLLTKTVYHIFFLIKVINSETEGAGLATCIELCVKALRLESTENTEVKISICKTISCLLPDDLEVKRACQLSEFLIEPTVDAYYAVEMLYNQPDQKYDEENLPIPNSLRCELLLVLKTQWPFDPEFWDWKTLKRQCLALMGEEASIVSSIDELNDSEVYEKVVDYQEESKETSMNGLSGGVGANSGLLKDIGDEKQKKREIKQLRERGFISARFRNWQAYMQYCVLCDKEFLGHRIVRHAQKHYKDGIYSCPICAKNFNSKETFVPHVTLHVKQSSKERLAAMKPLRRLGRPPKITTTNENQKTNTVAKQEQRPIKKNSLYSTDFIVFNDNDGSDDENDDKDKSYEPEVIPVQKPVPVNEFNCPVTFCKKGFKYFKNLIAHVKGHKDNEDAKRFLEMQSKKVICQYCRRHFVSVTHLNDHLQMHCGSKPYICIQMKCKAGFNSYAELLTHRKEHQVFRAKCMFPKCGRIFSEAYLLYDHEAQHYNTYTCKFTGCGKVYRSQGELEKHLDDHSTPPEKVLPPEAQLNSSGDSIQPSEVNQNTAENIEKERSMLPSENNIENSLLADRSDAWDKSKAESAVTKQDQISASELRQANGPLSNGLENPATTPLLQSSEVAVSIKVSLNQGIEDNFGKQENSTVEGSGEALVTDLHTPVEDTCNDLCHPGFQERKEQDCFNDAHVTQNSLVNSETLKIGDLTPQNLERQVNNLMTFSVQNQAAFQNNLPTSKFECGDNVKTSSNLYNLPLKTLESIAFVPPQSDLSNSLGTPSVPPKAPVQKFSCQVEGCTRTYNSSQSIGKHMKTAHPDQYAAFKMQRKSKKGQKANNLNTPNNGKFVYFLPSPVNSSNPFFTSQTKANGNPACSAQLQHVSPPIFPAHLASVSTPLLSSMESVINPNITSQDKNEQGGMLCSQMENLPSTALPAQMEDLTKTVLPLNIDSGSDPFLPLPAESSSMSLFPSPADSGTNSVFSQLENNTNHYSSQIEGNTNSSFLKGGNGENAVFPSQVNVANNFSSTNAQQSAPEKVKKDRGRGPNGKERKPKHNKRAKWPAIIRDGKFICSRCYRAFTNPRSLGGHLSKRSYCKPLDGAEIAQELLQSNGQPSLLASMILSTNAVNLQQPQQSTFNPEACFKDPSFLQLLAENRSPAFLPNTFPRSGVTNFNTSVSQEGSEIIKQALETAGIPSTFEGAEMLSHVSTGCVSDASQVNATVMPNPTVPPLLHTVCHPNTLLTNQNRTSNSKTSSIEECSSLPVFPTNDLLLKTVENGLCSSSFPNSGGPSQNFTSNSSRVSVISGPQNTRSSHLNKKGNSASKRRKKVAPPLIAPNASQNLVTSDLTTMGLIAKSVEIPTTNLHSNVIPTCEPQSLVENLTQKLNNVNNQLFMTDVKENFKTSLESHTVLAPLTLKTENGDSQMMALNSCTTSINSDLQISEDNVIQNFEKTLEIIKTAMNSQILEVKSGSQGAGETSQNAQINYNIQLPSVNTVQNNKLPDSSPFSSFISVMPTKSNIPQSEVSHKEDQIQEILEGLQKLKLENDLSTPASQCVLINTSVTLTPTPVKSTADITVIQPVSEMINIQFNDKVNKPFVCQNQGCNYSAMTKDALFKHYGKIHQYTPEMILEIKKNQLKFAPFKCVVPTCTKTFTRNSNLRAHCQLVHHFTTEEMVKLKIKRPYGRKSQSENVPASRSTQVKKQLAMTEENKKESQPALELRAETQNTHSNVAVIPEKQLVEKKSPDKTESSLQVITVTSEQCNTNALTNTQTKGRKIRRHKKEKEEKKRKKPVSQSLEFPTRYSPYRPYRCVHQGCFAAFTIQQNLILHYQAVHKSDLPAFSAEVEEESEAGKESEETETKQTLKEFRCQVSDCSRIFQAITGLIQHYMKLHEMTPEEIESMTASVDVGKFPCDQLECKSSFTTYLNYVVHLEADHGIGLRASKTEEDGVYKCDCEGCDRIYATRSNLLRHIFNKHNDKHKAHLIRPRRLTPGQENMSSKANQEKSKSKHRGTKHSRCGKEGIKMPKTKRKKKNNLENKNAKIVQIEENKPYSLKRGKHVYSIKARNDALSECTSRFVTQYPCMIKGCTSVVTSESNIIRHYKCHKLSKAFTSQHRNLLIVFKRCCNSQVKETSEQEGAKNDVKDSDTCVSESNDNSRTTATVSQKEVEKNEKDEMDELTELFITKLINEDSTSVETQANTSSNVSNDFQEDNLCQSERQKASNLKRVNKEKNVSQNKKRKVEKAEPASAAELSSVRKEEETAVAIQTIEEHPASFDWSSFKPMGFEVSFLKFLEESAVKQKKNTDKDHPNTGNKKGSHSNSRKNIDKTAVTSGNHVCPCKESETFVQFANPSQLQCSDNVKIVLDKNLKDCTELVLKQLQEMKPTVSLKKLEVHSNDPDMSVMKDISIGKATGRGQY
# UniProt O60568: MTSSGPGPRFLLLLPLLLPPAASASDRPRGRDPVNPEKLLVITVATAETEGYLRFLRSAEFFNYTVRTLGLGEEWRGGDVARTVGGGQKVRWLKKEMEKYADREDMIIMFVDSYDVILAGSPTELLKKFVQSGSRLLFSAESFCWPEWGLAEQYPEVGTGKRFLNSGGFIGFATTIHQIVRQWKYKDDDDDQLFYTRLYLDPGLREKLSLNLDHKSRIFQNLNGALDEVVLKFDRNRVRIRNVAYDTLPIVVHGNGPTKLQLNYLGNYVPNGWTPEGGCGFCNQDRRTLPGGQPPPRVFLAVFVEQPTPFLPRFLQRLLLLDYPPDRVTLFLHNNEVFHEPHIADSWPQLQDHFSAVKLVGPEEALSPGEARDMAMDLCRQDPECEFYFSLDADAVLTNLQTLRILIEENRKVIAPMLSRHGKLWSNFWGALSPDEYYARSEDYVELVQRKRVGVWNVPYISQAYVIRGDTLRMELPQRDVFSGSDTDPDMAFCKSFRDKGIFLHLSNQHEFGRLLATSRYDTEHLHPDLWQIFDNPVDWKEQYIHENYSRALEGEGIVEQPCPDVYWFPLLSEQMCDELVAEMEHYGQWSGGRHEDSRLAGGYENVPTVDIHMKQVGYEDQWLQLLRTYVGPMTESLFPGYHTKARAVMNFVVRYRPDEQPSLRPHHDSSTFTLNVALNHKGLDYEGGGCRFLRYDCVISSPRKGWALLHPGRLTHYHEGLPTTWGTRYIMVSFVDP
# UniProt O43395: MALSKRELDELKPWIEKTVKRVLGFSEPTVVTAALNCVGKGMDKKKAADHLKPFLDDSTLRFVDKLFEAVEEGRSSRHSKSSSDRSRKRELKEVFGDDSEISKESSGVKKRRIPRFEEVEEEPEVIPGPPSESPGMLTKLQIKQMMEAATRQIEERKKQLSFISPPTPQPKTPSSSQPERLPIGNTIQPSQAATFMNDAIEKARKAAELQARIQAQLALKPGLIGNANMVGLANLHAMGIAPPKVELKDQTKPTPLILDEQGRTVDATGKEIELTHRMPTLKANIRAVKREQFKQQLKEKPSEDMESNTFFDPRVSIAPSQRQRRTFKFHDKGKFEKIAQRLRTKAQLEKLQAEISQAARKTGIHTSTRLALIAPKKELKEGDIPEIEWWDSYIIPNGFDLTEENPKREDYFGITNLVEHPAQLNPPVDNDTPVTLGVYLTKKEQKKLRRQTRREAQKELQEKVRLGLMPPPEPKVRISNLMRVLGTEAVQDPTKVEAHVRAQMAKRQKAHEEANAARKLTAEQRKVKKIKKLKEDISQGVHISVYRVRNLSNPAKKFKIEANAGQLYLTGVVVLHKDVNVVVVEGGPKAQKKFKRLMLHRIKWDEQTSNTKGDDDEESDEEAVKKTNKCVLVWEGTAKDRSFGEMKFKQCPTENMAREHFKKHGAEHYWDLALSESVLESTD
# UniProt O60307: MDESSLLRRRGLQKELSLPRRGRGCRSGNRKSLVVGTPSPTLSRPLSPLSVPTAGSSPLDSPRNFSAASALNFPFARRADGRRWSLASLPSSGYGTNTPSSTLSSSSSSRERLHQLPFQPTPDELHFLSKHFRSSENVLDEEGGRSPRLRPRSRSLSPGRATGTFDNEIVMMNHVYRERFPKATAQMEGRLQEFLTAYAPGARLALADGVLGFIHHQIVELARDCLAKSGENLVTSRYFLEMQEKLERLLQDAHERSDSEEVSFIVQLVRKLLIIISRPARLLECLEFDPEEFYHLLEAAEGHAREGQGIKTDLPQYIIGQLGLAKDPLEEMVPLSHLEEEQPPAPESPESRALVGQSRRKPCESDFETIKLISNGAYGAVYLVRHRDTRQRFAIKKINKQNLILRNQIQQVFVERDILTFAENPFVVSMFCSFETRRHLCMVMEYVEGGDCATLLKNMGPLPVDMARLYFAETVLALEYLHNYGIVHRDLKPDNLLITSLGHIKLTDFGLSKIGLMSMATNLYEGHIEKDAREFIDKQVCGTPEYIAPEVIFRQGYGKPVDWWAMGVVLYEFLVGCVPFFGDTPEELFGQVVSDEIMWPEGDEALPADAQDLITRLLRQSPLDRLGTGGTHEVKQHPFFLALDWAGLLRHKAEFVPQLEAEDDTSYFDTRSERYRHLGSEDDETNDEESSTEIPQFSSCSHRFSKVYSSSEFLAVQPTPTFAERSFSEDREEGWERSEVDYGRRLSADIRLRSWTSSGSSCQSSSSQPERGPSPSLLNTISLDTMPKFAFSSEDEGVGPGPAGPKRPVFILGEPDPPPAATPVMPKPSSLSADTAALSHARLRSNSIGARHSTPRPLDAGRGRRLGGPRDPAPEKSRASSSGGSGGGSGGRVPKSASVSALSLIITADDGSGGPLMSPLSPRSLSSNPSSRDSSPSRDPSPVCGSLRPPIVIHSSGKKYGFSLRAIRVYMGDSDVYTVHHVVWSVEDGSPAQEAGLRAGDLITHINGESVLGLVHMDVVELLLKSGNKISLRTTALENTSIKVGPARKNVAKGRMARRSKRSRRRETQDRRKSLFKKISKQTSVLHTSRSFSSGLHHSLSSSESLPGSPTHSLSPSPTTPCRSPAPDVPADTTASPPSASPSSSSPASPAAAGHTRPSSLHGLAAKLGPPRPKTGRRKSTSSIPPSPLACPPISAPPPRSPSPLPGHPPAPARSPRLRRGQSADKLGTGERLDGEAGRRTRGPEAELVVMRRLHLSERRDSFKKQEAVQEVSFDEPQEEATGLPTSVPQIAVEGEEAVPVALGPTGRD
# UniProt O75821, whole entry, looked up: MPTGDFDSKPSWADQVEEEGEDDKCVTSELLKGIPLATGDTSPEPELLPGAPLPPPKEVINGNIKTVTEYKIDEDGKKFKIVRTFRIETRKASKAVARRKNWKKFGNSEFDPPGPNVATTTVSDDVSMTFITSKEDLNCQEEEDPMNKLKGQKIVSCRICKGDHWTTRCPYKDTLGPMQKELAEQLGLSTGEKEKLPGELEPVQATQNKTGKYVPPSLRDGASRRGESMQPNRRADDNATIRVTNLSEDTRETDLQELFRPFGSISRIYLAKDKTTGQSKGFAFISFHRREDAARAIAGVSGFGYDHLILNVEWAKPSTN
# The entries are a selection whose mix differs from that of the whole data set.
# Compound: COC(=O)C#Cc1ccccc1 [methyl 3-phenylpropiolate]
# Experiment: log2 ratio of iodoacetamide-alkyne labeling of the cysteine site, DMSO over compound (competition); higher = stronger covalent engagement of the cysteine by the compound, active = 1 or more
# Details: 500 µM; treatment time 1 h; system: HEK293T cell lysate
# Method in brief: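 Electrophile (500 µM) or vehicle was added to HEK293T lysate (2 mg/mL) for 1 h at ambient temperature before iodoacetamide alkyne labelling (1 h) and click coupling to sCIP-TMT reagents. After pooling, overnight trypsin digestion at 37 °C, streptavidin enrichment and acid elution, peptides were measured by Orbitrap Eclipse LC-MS/MS with FAIMS and quantified in FragPipe. Each cysteine's log2 competition ratio compares mean control-channel with mean compound-channel reporter intensity, control over compound. Data came from duplicate channels across three replicates, excluding cysteines quantified in only one replicate.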
row,Target,log2 ratio of iodoacetamide-alkyne labeling
1,VPS4B C240 (UniProt O75351),inactive: 0.188
2,HNRNPR C292 (UniProt O43390),inactive: 0.0673
3,ACTN4 C351 (UniProt O43707),inactive: 0.157
4,LYPLA1 C169 (UniProt O75608),inactive: 0.127
5,IDH3B C185 (UniProt O43837),inactive: 0.839
6,NCK2 C297 (UniProt O43639),inactive: 0.211
7,GSTZ1 C205 (UniProt O43708),inactive: -0.00836
8,MCM3AP C274 (UniProt O60318),inactive: 0.243
9,UniProt O75521_C380,inactive: 0.234
10,FLNB C1280 (UniProt O75369),inactive: -0.0904
11,NDUFS6 C87 (UniProt O75380),inactive: 0.043
12,TBC1D4 C753 (UniProt O60343),inactive: 0.981
13,CPNE3 C5 (UniProt O75131),inactive: 0.13
14,UniProt O75879_C228,inactive: 0.00949
15,UniProt O75153_C1196,inactive: 0.492
16,USO1 C678 (UniProt O60763),inactive: 0.232
17,ANKRD17 C58 (UniProt O75179),active: 1.35
18,UniProt O60232_C53,inactive: 0.206
19,RECQL4 C208 (UniProt O94761),inactive: 0.996

# Quoted from the listing:
# HNRNPR C292 (UniProt O43390) – log2 ratio of iodoacetamide-alkyne labeling: inactive: 0.0673
# IDH3B C185 (UniProt O43837) – log2 ratio of iodoacetamide-alkyne labeling: inactive: 0.839

# (continued)

row,Target,log2 ratio of iodoacetamide-alkyne labeling
1,AKAP8 C173 (UniProt O43823),inactive: 0.65
2,SRGAP2 C893 (UniProt O75044),inactive: 0.647
3,ZNF292 C1564 (UniProt O60281),inactive: 0.493
4,PLOD3 C494 (UniProt O60568),inactive: 0.194
5,CTNND1 C618 (UniProt O60716),inactive: 0.595
6,NCOR1 C474 (UniProt O75376),inactive: 0.759
7,CPD C582 (UniProt O75976),inactive: 0.145
8,DENR C13 (UniProt O43583),inactive: 0.235
9,GGCT C6 (UniProt O75223),inactive: 0.209
10,ULK1 C426 (UniProt O75385),inactive: 0.91
11,CIAO1 C234 (UniProt O76071),inactive: 0.325
12,FZD6 C702 (UniProt O60353),inactive: 0.348
13,IDH3B C233 (UniProt O43837),inactive: 0.394
14,PRPF3 C37 (UniProt O43395),inactive: 0.317
15,AP1G1 C353 (UniProt O43747),inactive: 0.32
16,GLRX3 C229 (UniProt O76003),inactive: 0.435
17,MAST3 C541 (UniProt O60307),inactive: 0.46
18,EIF3G C25 (UniProt O75821),inactive: 0.101
